The results in this text go back to US4356165A (Burroughs Wellcome Co., priority 1980, dated 1982).

This series concerns anticompound 2 sera, and anti-compound 3 sera. As to the kind of experiment: RIA of bupropion using 125I-labeled bupropion competitors (sensitivity), anti-compound 2 sera and anti-compound 3 sera. It is filed as binding. The conditions noted are these: with anti-compound 2 sera or anti-compound 3 sera; FIG. 2.

Molecules are shown by their SMILES.

Take `CC(NC(C)(C)C)C(=O)c1ccc(CCCOC(=O)CCC(=O)NCCc2ccc(O)c([125I])c2)c(Cl)c1` (stereo not drawn) [Compound 8, α-t-Butylamino-3-chloro-4-γ-hydroxypyropylpropiophenone-hemisuccinate-^125 I-tyramine amide]: the “RIA sensitivity relative to the compound 10 (3H bupropion) assay system” value is given as “sensitivity approximately equal to that obtained with the compound 10 system”.

`CC(NC(C)(C)C)C(=O)c1ccc(OCC(=O)NCCc2ccc(O)c([125I])c2)c(Cl)c1` (stereo not drawn) [Compound 7, α-t-Butylamino-3-chloro-4-carbomethoxypropiophenone-^125 I-tyramine amide]: the “RIA sensitivity relative to the compound 10 (3H bupropion) assay system” value is “sensitivity approximately equal to that obtained with the compound 10 system”.

As to `CC(NC(C)(C)C)C(=O)c1ccc(O)c([125I])c1` (stereo not drawn) [Compound 9, ^125 I-α-t-Butylamino-3-iodo-4-hydroxypropiophenone], the “RIA sensitivity relative to the compound 10 (3H bupropion) assay system” value was “approximately ten times more sensitive than the compound 10 (^3 H bupropion) assay system”.
